Assay results published in PubChem BioAssay AID504834 (National Center for Advancing Translational Sciences (NCATS), 2011).
About 22,000 (6.9%) of roughly 320,000 compounds were called active. The shares of active, inactive and inconclusive entries below differ from those in the screen. The call rests on the fitted dose curve; in most records, active means well fitted inhibition curve with a large enough effect; inconclusive means small, poorly fitted or top-dose-only effect, or another doubt; inactive means no such curve, though single readings can be large or run the other way. Potencies of inconclusive entries are doubtful fits and often do not repeat.

Assay: Primary qHTS for delayed death inhibitors of the malarial parasite plastid, 96 hour incubation
Settings: P. falciparum luciferase reporter growth; series mostly up to 28.7 µM
In short: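 P. falciparum expressing integrated firefly luciferase grown in erythrocytes (2% hematocrit, 0.05% parasitemia final) with compounds for 96 hours at 37 C, 5% CO2. Growth inhibition read as loss of luminescence after adding luciferase detection reagent.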
Potency means the concentration at half of the fitted maximal effect.

Row | SMILES | Potency
1 | CN(C)CCN1C(=O)C(O)=C(C(=O)c2cc3ccccc3o2)C1c1ccccn1 (centres undefined) | inactive
2 | CCOc1ccc(/C=C\c2nc(O)c([N+](=O)[O-])c(=O)[nH]2)cc1OCC | inconclusive: 2.33 µM [inhibitor, partial curve]
3 | CCNc1nc(C#N)nc2c1ncn2-c1cc(F)cc(F)c1 | inconclusive: 0.37 µM [inhibitor, full curve, poor fit]
4 | COc1ccc(C)cc1NC(=O)Cc1c(C(=O)O)n(C)c2ccccc12 | inconclusive: 2.08 µM [inhibitor, full curve]
5 | CC1CCN(c2ccc3nnc(CCC(=O)Nc4ccc(F)cc4)n3n2)CC1 | inconclusive: 16.5 µM [inhibitor, single point]
6 | CC1CN(C(=O)Nc2ccc3c(c2)OCO3)CC(C)O1 (centres undefined) | inactive
7 | COc1cc(OC)cc(C(=O)NCc2ccc3[nH]c(C)cc3c2)c1 | active: 18.5 µM
8 | Cc1cc(=O)oc2c(C)c(OCC(=O)N(C)C)ccc12 | inconclusive: 16.5 µM [inhibitor, single point]
9 | CCOCCCn1c(SC(C)C(=O)NCC2CCCO2)nc2sc(C)c(C)c2c1=O (centres undefined) | inconclusive: 13.1 µM [inhibitor, single point]
10 | CN(C)CCCN(C(=O)c1cccs1)c1nc2cc3c(cc2s1)OCO3 | inconclusive: 10.4 µM [inhibitor, partial curve, poor fit]
11 | CCN(CC)S(=O)(=O)c1cccc(NC(=O)CCSc2ccc(Cl)cc2)c1 | inactive
12 | O=C(COC(=O)C1CCN(c2ccc(C(F)(F)F)cn2)CC1)c1ccccc1 | inactive
13 | Oc1ccccc1C1=NN(c2ccccc2)C(c2ccc(F)cc2)C1 (centres undefined) | active: 10.4 µM
14 | CC(NC(=O)c1ccco1)C(=O)N1CCN(S(=O)(=O)c2ccccc2C#N)CC1 (centres undefined) | inconclusive: 18.5 µM [inhibitor, single point]
15 | O=[N+]([O-])c1ccc(Cl)c(/C=N/N2CCN(Cc3ccccc3)CC2)c1 | inactive
16 | Cc1ccnc(NC(=O)C2CCCN(S(=O)(=O)c3ccc4[nH]c(=O)ccc4c3)C2)c1 (centres undefined) | inconclusive: 11.7 µM [inhibitor, single point]
17 | COc1ccc([N+](=O)[O-])cc1NC(=O)C(C)Sc1nc(C)c(C)c(C)n1 (centres undefined) | inconclusive: 10.4 µM [inhibitor, single point]
18 | CCOP(=O)(OCC)C(Nc1cccc([N+](=O)[O-])c1)c1ccc(OC)cc1 (centres undefined) | inconclusive: 1.47 µM [inhibitor, full curve, poor fit]
19 | NC(=O)c1cc([N+](=O)[O-])ccc1NCc1ccccn1 | inactive

Shown with tabs: entries from further up
Row	SMILES	Potency
17	COc1ccc([N+](=O)[O-])cc1NC(=O)C(C)Sc1nc(C)c(C)c(C)n1 (centres undefined)	inconclusive: 10.4 µM [inhibitor, single point]
18	CCOP(=O)(OCC)C(Nc1cccc([N+](=O)[O-])c1)c1ccc(OC)cc1 (centres undefined)	inconclusive: 1.47 µM [inhibitor, full curve, poor fit]
